Experimental data taken from PMC7580532.
No constants are given. Whether binding was seen depends on the method and setting. Binding seen in cells or lysates may run through a third protein. Some results given as binding are weak or reduced against the parent protein; the word gives no strength.

T1: syntaxin-binding protein-2 (STXBP2), wild type (human (endogenous in PBMCs)) (UniProt Q15833)
T1 sequence: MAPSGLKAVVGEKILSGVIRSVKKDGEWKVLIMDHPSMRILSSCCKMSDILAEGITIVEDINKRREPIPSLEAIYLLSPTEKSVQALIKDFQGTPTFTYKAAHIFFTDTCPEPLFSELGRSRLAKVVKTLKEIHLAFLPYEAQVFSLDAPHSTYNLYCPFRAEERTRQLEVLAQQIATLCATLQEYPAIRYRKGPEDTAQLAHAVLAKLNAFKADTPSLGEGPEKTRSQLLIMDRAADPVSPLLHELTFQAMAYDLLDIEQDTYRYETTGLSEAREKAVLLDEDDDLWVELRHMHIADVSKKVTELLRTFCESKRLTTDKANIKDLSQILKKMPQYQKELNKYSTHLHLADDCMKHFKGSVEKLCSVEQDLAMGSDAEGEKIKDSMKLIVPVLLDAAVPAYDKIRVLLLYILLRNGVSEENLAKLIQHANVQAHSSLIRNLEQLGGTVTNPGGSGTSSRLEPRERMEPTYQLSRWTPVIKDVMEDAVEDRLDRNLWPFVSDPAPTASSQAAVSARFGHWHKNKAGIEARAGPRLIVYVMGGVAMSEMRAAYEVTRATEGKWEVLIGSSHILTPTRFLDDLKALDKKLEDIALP

T2: STXBP2-R190C variant (p.Arg190Cys, c.568C>T) (human (endogenous in PBMCs)) (UniProt Q15833)
T2 sequence: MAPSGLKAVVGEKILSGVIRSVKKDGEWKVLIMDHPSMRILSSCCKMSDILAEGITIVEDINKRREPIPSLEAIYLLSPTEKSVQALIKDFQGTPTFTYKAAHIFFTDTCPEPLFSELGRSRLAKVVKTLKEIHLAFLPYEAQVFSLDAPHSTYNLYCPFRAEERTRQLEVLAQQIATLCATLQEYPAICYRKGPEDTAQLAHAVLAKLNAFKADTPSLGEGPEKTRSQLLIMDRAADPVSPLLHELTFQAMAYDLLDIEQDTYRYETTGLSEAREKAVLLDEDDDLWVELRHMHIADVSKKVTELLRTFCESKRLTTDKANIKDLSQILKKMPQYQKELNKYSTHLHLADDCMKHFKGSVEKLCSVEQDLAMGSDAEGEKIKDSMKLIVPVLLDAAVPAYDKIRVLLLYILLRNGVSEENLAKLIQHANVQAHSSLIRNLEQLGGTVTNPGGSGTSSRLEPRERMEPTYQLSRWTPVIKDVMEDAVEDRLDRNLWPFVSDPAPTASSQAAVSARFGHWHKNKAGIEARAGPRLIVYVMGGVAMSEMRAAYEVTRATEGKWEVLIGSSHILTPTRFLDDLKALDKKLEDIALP


Assays:
[1] = target: T1, syntaxin-binding protein-2 (STXBP2), wild type (human (endogenous in PBMCs)); assay: co-IP; endogenous STXBP2 immunoprecipitated from cell lysates (H.C. or patient) with anti-STXBP2 antibody coupled to agarose beads (Pierce CO-IP kit), 20 h at 4°C; lysis buffer 25 mM Tris, 150 mM NaCl, 1 mM EDTA, 5% glycerol, pH 7.4, 1% NP-40; five washes; elution at pH 2.8; Western blot
[2] = target: T2, STXBP2-R190C variant (p.Arg190Cys, c.568C>T) (human (endogenous in PBMCs)); assay: as above

| binding [1] | binding [2] | Binder |
| --- | --- | --- |
| binds | binds | syntaxin-11 (STX11) (protein, UniProt O75558 1-287) MKDRLAELLDLSKQYDQQFPDGDDEFDSPHEDIVFETDHILESLYRDIRDIQDENQLLVADVKRLGKQNARFLTSMRRLSSIKRDTNSIAKAIKARGEVIHCKLRAMKELSEAAEAQHGPHSAVARISRAQYNALTLTFQRAMHDYNQAEMKQRDNCKIRIQRQLEIMGKEVSGDQIEDMFEQGKWDVFSENLLADVKGARAALNEIESRHRELLRLESRIRDVHELFLQMAVLVEKQADTLNVIELNVQKTVDYTGQAKAQVRKAVQYEEKNPCRTLCCFCCPCLK |
| binds | binds | STX3 (protein, UniProt Q13277 1-289) MKDRLEQLKAKQLTQDDDTDAVEIAIDNTAFMDEFFSEIEETRLNIDKISEHVEEAKKLYSIILSAPIPEPKTKDDLEQLTTEIKKRANNVRNKLKSMEKHIEEDEVRSSADLRIRKSQHSVLSRKFVEVMTKYNEAQVDFRERSKGRIQRQLEITGKKTTDEELEEMLESGNPAIFTSGIIDSQISKQALSEIEGRHKDIVRLESSIKELHDMFMDIAMLVENQGEMLDNIELNVMHTVDHVEKARDETKKAVKYQSQARKKLIIIIVLVVVLLGILALIIGLSVGLN |
